Assay: in vitro
Conditions: human, Caco-2

SMILES: CC(C)NCC(O)COc1ccc(CC(N)=O)cc1 (stereo not shown) [atenolol, reference compound]
- Papp A→B at 150 min, 20 µM: 0.48 ± 0.07 ×10⁻⁶ cm/s

Source: paper PMC4926073, “Absorption and Transport of Sea Cucumber Saponins from Apostichopus japonicus” (Marine Drugs, 2016)
